Source: PubChem BioAssay AID248 (DTP/NCI, 2004)
The list is a part of this screen's results and no random one: it is rich in T/C values a quarter to a half above the control, in often repeated tests (any T/C) and in doses without a T/C. Other doses and runs of a compound stand elsewhere. T/C: endpoint of the treated group in % of that of the vehicle group. Some doses have a count of surviving animals in place of a T/C: the source holds a T/C of zero for them, seemingly a mark for toxic or unscored doses. Some doses without a T/C left all or most animals alive at the check, yet need not have been tolerated: survival well below the control is almost never listed, so the zero probably covers shortened survival too. Survivors were counted at the toxicity check, usually on the fifth day, unless a day is given; later deaths do not show. Schedules are NCI's codes, read here as Q, the interval in days (D) or hours (H), X, the number of doses. Some doses were run more than once; the results are listed from low to high. Where survival is the endpoint, this PubChem deposit counts one and a half times the control or more as active, and values a quarter to a half above the control carry no call in these data; other NCI protocols may use other cut-offs. Some T/C values carry the count of animals alive at the toxicity check (mostly the fifth day); where none is given, no animal had died by that day.

System: L1210 leukemia ip in BDF1 mice, survival T/C
Assay: NCI In Vivo Anticancer Drug Screen. Data for tumor model L1210 Leukemia (intraperitoneal) in B6D2F1 (BDF1) mice
Settings: T/C endpoint: median survival time, vehicle: saline, higher T/C = longer survival
[1] = dose: 1024.0 mg/kg/injection, schedule: Q01DX001 (oral)

SMILES: N[C@H](C(=O)O)[C@@H]1CC(Cl)=NO1
- T/C (dose: 0.39 mg/kg/injection, schedule: Q03HX016 (ip)): 136 % of control
- T/C (dose: 0.5 mg/kg/injection, schedule: Q03HX024 (ip)): 139 % of control
- T/C (dose: 0.78 mg/kg/injection, schedule: Q03HX008 (ip)): 130 % of control
- T/C (dose: 1.0 mg/kg/injection, schedule: Q01DX009 (ip)): 132 % of control
- T/C (dose: 1.0 mg/kg/injection, schedule: Q03HX016 (ip)): 135 % of control
- T/C (dose: 1.56 mg/kg/injection, schedule: Q01DX009 (ip)): 133 % of control
- T/C (dose: 1.56 mg/kg/injection, schedule: Q03HX008 (ip)): 146 % of control [9 of 10 alive]
- T/C (dose: 1.56 mg/kg/injection, schedule: Q03HX024 (ip)): 148 % of control
- T/C (dose: 2.0 mg/kg/injection, schedule: Q01DX009 (ip)): 139 % of control
- T/C (dose: 2.0 mg/kg/injection, schedule: Q01DX009 (sc)): 133 % of control
- T/C (dose: 2.0 mg/kg/injection, schedule: Q03HX008 (ip)): 129 % of control
- T/C (dose: 3.12 mg/kg/injection, schedule: Q03HX024 (ip)): 148 % of control [9 of 10 alive]
- T/C (dose: 4.0 mg/kg/injection, schedule: Q01DX009 (sc)): 138 % of control
- T/C (dose: 4.0 mg/kg/injection, schedule: Q03HX008 (ip)): 130 % of control
- survivor count (dose: 6.25 mg/kg/injection, schedule: Q01DX009 (ip)): 9 of 10
- T/C (dose: 6.25 mg/kg/injection, schedule: Q03HX008 (ip)): 145 % of control
- T/C (dose: 6.25 mg/kg/injection, schedule: Q03HX024 (ip)): 127 % of control
- T/C (dose: 6.25 mg/kg/injection, schedule: Q04DX003 (ip)): 144 % of control
- T/C (dose: 8.0 mg/kg/injection, schedule: Q01DX009 (oral)): 135 % of control
- T/C (dose: 8.0 mg/kg/injection, schedule: Q03HX008 (ip)): 126 % of control [9 of 10 alive]
- T/C (dose: 8.0 mg/kg/injection, schedule: Q04DX003 (ip)): 133 % of control
- survivor count (dose: 12.5 mg/kg/injection, schedule: Q01DX009 (ip)): 9 of 10
- T/C (dose: 12.5 mg/kg/injection, schedule: Q03HX008 (ip)): 126 % of control [6 of 9 alive]
- T/C (dose: 16.0 mg/kg/injection, schedule: Q01DX009 (ip)): 135 % of control
- survivor count (dose: 16.0 mg/kg/injection, schedule: Q01DX009 (oral)): 9 of 10
- T/C (dose: 16.0 mg/kg/injection, schedule: Q03HX008 (ip)): 133 % of control
- survivor count (dose: 25.0 mg/kg/injection, schedule: Q03HX008 (ip)): 8 of 10
- survivor count (dose: 25.0 mg/kg/injection, schedule: Q03HX016 (ip)): 6 of 10
- T/C (dose: 25.0 mg/kg/injection, schedule: Q08DX002 (ip)): 131 % of control
- survivor count (dose: 32.0 mg/kg/injection, schedule: Q01DX009 (oral)): 9 of 10 and 10 of 10
- survivor count (dose: 32.0 mg/kg/injection, schedule: Q01DX009 (sc)): 9 of 10
- T/C (dose: 32.0 mg/kg/injection, schedule: Q03HX008 (ip)): 135 % of control
- T/C (dose: 32.0 mg/kg/injection, schedule: Q04DX003 (ip)): 133 % of control
- survivor count (dose: 50.0 mg/kg/injection, schedule: Q03HX008 (ip)): 4 of 10
- survivor count (dose: 64.0 mg/kg/injection, schedule: Q01DX009 (oral)): 3 of 10 and 10 of 10
- T/C (dose: 64.0 mg/kg/injection, schedule: Q04DX003 (ip)): 142 % of control
- T/C (dose: 100.0 mg/kg/injection, schedule: Q01DX001 (ip)): 137 % of control
- T/C (dose: 100.0 mg/kg/injection, schedule: Q04DX003 (ip)): 135 % of control
- T/C (dose: 128.0 mg/kg/injection, schedule: Q01DX001 (oral)): 129 % of control
- survivor count (dose: 128.0 mg/kg/injection, schedule: Q01DX009 (oral)): 5 of 10 and 9 of 10
- survivor count (dose: 200.0 mg/kg/injection, schedule: Q01DX001 (ip)): 9 of 10
- T/C (dose: 200.0 mg/kg/injection, schedule: Q08DX002 (ip)): 144 % of control
- T/C (dose: 256.0 mg/kg/injection, schedule: Q01DX001 (oral)): 126 % of control
- T/C (dose: 512.0 mg/kg/injection, schedule: Q01DX001 (oral)): 129 and 133 % of control
- T/C [1]: 135 % of control [9 of 10 alive]
- survivor count [1]: 6 of 10
